In the supplement of paper PMC12823440, “Inhibitors supercharge kinase turnover through native proteolytic circuits” (Nature, 2025):
Counter-ions that a name gives are not always drawn. Some of the results follow. The calls rarely recur for the same compound in another form.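 Kinases, fused to nanoluciferase, were expressed in K562 cells; luminescence was measured every 4 h from 2 to 18 h as percent of control (DMSO = 100%, positive control = 0%). A time point is decreased if signal falls significantly (2 sigma). Hits were called by the authors by a rule that is not shown; the count of time points alone does not decide it.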

By UniProt entry, the sequences of proteins in these tests, tags left out. Where a name states a change or a piece, a line headed by the entry shows the natural chain unless it says otherwise.
UniProt P43403: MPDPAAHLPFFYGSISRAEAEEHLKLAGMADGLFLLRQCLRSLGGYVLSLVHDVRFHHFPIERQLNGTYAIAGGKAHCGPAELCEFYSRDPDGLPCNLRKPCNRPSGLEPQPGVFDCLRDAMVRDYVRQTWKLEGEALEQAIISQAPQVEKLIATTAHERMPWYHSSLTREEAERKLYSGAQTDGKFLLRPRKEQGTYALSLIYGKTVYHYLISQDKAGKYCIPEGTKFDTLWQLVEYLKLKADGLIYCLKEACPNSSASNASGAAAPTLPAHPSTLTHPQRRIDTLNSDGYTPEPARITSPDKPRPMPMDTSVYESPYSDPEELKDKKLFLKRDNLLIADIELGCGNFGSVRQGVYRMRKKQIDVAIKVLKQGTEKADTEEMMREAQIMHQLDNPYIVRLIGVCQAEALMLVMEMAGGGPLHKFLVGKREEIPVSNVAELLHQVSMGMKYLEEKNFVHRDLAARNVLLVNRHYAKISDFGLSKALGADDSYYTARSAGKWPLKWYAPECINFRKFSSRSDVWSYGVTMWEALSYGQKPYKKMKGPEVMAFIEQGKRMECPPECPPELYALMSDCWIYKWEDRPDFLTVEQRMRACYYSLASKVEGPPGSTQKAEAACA

Target: ZAP70 (UniProt P43403)
Experiment: kinase-Nluc reporter destabilization hit call (1 = scored as downregulated) (binary); higher = compound decreases kinase abundance
Conditions: K562; 2-18 h

kinase-Nluc reporter destabilization hit call, inactive:
N#Cc1cnc2c(Cl)cc(NCc3cn(CCN4CCCCCC4)nn3)cc2c1Nc1ccc(F)c(Cl)c1 [Cot inhibitor-1] (10 µM) 0
Cc1cc(Nc2cc(N)ncn2)c(=O)n2c1C(=O)NC21CCCCC1 [Tomivosertib] (10 µM) 0
CC(Cc1ccc(O)c(O)c1)C(C)Cc1ccc(O)c(O)c1 (centres undefined) [Nordihydroguaiaretic acid] (2.5 µM) 0
CNC(=O)c1ccc2c(C(=Nc3cccc(CN(C)C)c3)c3ccccc3)c(O)[nH]c2c1 [MEK inhibitor] (10 µM) 0
COC(=O)[C@H](CCSC)NC(=O)c1ccc(NC[C@@H](N)CS)cc1-c1ccccc1 [FTI-277 (hydrochloride)] (10 µM) 0
C=CC(=O)Nc1ccc(C(=O)Nc2[nH]nc3c2CN(C(=O)N[C@H](CN(C)C)c2ccccc2)C3(C)C)cc1 (10 µM) 0
CCN(CC)CCCC(C)Nc1nc(C)cc(Nc2ccc3nc(C)cc(N)c3c2)n1 (centres undefined) (10 µM) 0
COc1cc(F)ccc1-c1ncnc(Nc2cccc(C[S@](C)(=N)=O)c2)n1 [Atuveciclib] (2.5 µM) 0
O=C(c1cccc(Cl)c1F)N1CCN(Cc2cccc(Nc3nccs3)n2)CC1 (2.5 µM) 0
N#Cc1ccc(-c2cnc3ccc(-c4ccc(C(=O)N5CCOCC5)cc4)cn23)cc1 (10 µM) 0
Cc1ccc(C(=O)NC2CC2)cc1-n1ncc(C(=O)c2cccc(C#N)c2)c1N [Acumapimod] (10 µM) 0
N#Cc1ccc(-c2cnc3[nH]cc(NC(=O)c4cccnc4)c3c2)cc1 (10 µM) 0
CC1(N)CCN(c2cccnc2NC(=O)c2nc(-c3ncccc3C(F)(F)F)cnc2N)CC1 [Darovasertib] (10 µM) 0
COc1cc(N2CCC(N3CCN(C)CC3)CC2)ccc1Nc1ncc(Cl)c(-c2c[nH]c3ccccc23)n1 (2.5 µM) 0
CN1CCN(c2ccc(Nc3ncc4cc(C#N)c(=O)n(C5CCCC5)c4n3)cc2)CC1 (10 µM) 0
CO[C@H]1CC[C@H](N2C(=O)CNc3ncc(-c4ccc(C(C)(C)O)nc4)nc32)CC1 (2.5 µM) 0
Cc1c(C(=O)Nc2ccc(Oc3ccnc4[nH]cc(-c5ccccc5)c34)c(F)c2)c(=O)n(-c2ccc(F)cc2)n1C (10 µM) 0
COc1ccc(Nc2ncc(C(F)(F)F)c(NC3CC3)n2)cc1OC (10 µM) 0
C[C@@H]1O[C@@H](Oc2cc(O)c3c(=O)c(O[C@@H]4O[C@@H](C)[C@H](O)[C@@H](O)[C@H]4O)c(-c4ccc(O)cc4)oc3c2)[C@H](O)[C@H](O)[C@H]1O [Kaempferitrin] (10 µM) 0
COC(=O)Nc1ccc(-c2nc(N3CCOCC3)c3cnn(C4CCN(Cc5cccnc5)CC4)c3n2)cc1 (10 µM) 0
CC(C)Oc1ccc(F)c(-c2cnc(N)c(C(=O)Nc3cnccc3N3CCC[C@@H](C(=O)O)C3)n2)c1 (2 µM) 0
O=Nc1c(-c2c(O)[nH]c3cc(Br)ccc23)[nH]c2ccccc12 [GSK 3 Inhibitor IX] (2.5 µM) 0
NCC1CCC(CNc2nc(NCc3ccccc3OC(F)(F)F)ncc2[N+](=O)[O-])CC1 (centres undefined) [PKC-theta inhibitor] (10 µM) 0
N[C@@H]1CCCN(c2c(/C=C3\SC(=O)NC3=O)cccc2-c2ccccc2)C1 (10 µM) 0
CCn1c(-c2nonc2N)nc2c(C#CC(C)(C)O)ncc(OC[C@H]3CCCNC3)c21 (10 µM) 0
CNC(=O)c1cc2c(Oc3ccc(NC(=O)C4(C(=O)Nc5ccc(F)cc5)CC4)cc3)ccnc2cc1OC (2.5 µM) 0
C=CC(=O)N1CC[C@@H](Oc2nc(Nc3ccc(N4CCC(N5CCN(C)CC5)CC4)cc3)c(C(N)=O)nc2CC)C1 [Naquotinib (mesylate)] (2.5 µM) 0
C=CC(=O)Nc1cc(Nc2nccc(-c3cn(C)c4ccccc34)n2)c(OC)cc1OCCN(C)C [Rezivertinib] (2.5 µM) 0
Oc1c(F)cc(-c2cnccc2-c2ccc(N3CCOCC3)cc2)cc1F (10 µM) 0

Random excerpt: two records from the list
kinase-Nluc reporter destabilization hit call, inactive:
O=Nc1c(-c2c(O)[nH]c3cc(Br)ccc23)[nH]c2ccccc12 [GSK 3 Inhibitor IX] (2.5 µM) 0
Oc1c(F)cc(-c2cnccc2-c2ccc(N3CCOCC3)cc2)cc1F (10 µM) 0
